Values from PubChem BioAssay AID493246 (Drosophila RNAi Screening Center, 2011)

Screen: 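Genome-wide search for dsRNAs that reduce cell number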 (primary screen)
Cell system: Drosophila Kc and S2R+ cells
Reagents: long dsRNA against Drosophila genes
Detection: 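Cell number per well after knock-down, printed as raw plate values; calls were based on per-plate z-scores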
Direction: Kc cell number and S2R+ cell number: higher = more cells remaining
Rule for the call: 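Active when the per-plate z-score of cell number is 3 or more in the direction of fewer cells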
In all, the deposit lists about 21,000 reagents; below is an unselected part of those with a known target gene and a result. Over the whole deposit, 429 (2%) got an active call. 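Values are raw and not normalised between plates; calls rest on per-plate z-scores that were not deposited.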 Unmarked entries are inactive. Not given: the amount of reagent, the time to read-out.

gene | PubChem SID | Kc cell number, rep 1 | Kc cell number, rep 2 | S2R+ cell number, rep 1 | S2R+ cell number, rep 2
CG33285 | SID104191255 | 1.41e6 | 1.49e6 | 1.08e6 | 1.23e6
CG33322 | SID104182996 | 1.43e6 | 1.54e6 | 1.31e6 | 3.15e5
CG1368 | SID104199329 | 5.36e5 | – | 8.61e5 | –
Plap (Phospholipase A2 activator protein) | SID104180470 | 1.26e6 | 1.28e6 | 9.28e5 | 9.84e5
Upf2 | SID104198010 | 1.59e6 | 1.48e6 | 1.06e6 | 1.09e6
CG32104 | SID104189919 | 1.81e6 | 1.84e6 | 1.33e6 | 1.36e6
CG32104 | SID104189920 | 1.64e6 | 1.75e6 | 1.29e6 | 1.34e6
CG5402 | SID104195584 | 1.54e6 | 1.58e6 | 9.83e5 | 1.14e6
CG32187 | SID104190313 | 1.34e6 | 1.41e6 | 1.20e6 | 1.31e6
GstD8 (Glutathione S transferase D8) | SID104196481 | 1.53e6 | 1.63e6 | 1.21e6 | 1.33e6
Tsp26A (Tetraspanin 26A) | SID104182927 | 1.58e6 | 1.51e6 | 1.26e6 | 1.43e6
CNT2 (Concentrative nucleoside transporter 2) | SID104186865 | 1.33e6 | 1.32e6 | 1.11e6 | 1.24e6
Obp19d (Odorant-binding protein 19d) | SID104200361 | 1.53e6 | 1.42e6 | 1.04e6 | 1.18e6
CG34169 | SID104181371 | 1.57e6 | 1.63e6 | 9.59e5 | 1.20e6
Psf2 (Partner of Sld Five 2) | SID104180308 | 1.68e6 | 1.66e6 | 1.22e6 | 1.44e6
PICK1 (Protein interacting with C kinase 1) | SID104182728 | 1.70e6 | 1.72e6 | 1.38e6 | 1.56e6
EcR (Ecdysone receptor) | SID104184698 | 1.53e6 | 1.57e6 | 1.34e6 | 1.49e6
EcR (Ecdysone receptor) | SID104184702 | 1.32e6 | 1.36e6 | 1.14e6 | 1.20e6
Polr2B (RNA polymerase II subunit B) | SID104196623 | 1.55e6 | 1.80e6 | 9.54e5 | 1.01e6
CG10602 | SID104181867 | 1.27e6 | 1.32e6 | 1.29e6 | 1.30e6
CG12065 | SID104197590 | 5.77e5 | – | 8.94e5 | –
CG12065 | SID104197591 | 1.63e6 | 1.70e6 | 1.12e6 | 1.25e6
ppk8 (pickpocket 8) | SID104197061 | 1.52e6 | 1.66e6 | 1.08e6 | 1.11e6
PIG-C (Phosphatidylinositol glycan anchor biosynthesis class C) | SID104188033 | 1.50e6 | 1.30e6 | 9.67e5 | 1.15e6

Targets above whose target name begins with E or e:
gene | PubChem SID | Kc cell number, rep 1 | Kc cell number, rep 2 | S2R+ cell number, rep 1 | S2R+ cell number, rep 2
EcR (Ecdysone receptor) | SID104184698 | 1.53e6 | 1.57e6 | 1.34e6 | 1.49e6
EcR (Ecdysone receptor) | SID104184702 | 1.32e6 | 1.36e6 | 1.14e6 | 1.20e6
